# Reference: PubChem BioAssay AID2685 (National Center for Advancing Translational Sciences (NCATS), 2010)
# The other results are listed elsewhere or left out. Further columns of the screen follow, without active or inactive calls. Most of these compounds were active or inconclusive in the main read-out, so they are no random draw. The note in brackets gives the kind of curve behind each potency; many fits are weak.
# Assay: qHTS Assay for Lipid Storage Modulators in Drosophila S3 Cells;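 for cell number change: cells counted by Cell Tracker Red CMTPX staining in the red channel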
# Conditions: BODIPY lipid droplet fluorescence, 18-24 h; for cell number change: measured here: cell count max response, cells fed with added oleic acid
# How it was run: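 Drosophila S3 cells loaded with oleic acid (400 uM, as added) and compounds at several concentrations; lipid droplets imaged by 488-nm laser-scanning cytometry, 500–530 nm intensity and object ratio to cell channel. Percent activity normalized to 20 uM Triacsin C.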
# [1] = measured here: lipid fluorescence (Fed channel) AC50, cells fed with added oleic acid
# [2] = measured here: cell number channel AC50, cells fed with added oleic acid
SMILES,cell number change [%],AC50 [1],AC50 [2]
O=C(O)c1cccc(S(=O)(=O)N(Cc2ccccc2)c2ccc(Cl)cc2)c1,-17,"20.6 µM [falling, partial curve]",
COc1cccc(/C=N/Nc2nc3ccccc3n3cnnc23)c1O,-15.9,"16.4 µM [falling, single point]",
O=[N+]([O-])c1ccc(CN2CCN(c3ccccc3)CC2)o1,11.7,"20.6 µM [rising, single point]",
O=C(CC1C(=O)NCCN1Cc1ccc(F)cc1)NC1CCCCCCC1 (configuration not stated),-8.49,"0.58 µM [rising, single point]",
CCC(=O)Nc1ccc(-c2nn3c(C)nnc3s2)cc1C,-0.929,"2.91 µM [rising, partial curve, poor fit]",
Cc1ccc(N=Cc2cc3c(cc2O)OC(N)=C(C#N)C3c2ccccc2)cc1 (configuration not stated),-42.8,"29.1 µM [falling, single point]","29.1 µM [falling, single point]"
Cc1cccc(NC(=O)c2nc[nH]c2C(=O)N[C@@H](C)c2ccccc2)c1,-83.7,,"29.1 µM [falling, single point]"
O=C(COc1ccc(Br)cc1)N(Cc1cccs1)C1CCS(=O)(=O)C1 (configuration not stated),1.49,,"0.82 µM [falling, single point]"
CC(=O)Nc1cccc(NC(=O)Cc2ccc3ccccc3c2)c1,27,"2.06 µM [rising, partial curve]",
C=CCc1cccc(/C=N/NC(=O)C(C)Nc2ccc(C)cc2)c1O (configuration not stated),14.1,"0.58 µM [falling, single point]",
O=C(CN1CCN(S(=O)(=O)c2ccc(Cl)s2)CC1)N1CCCCC1,8.18,,
COc1cc(C(=O)N2CCSCC2)ccc1OC1CCN(C(C)=O)CC1,12.3,"6.51 µM [rising, single point]",
Cc1ccccc1C(=O)NNC1=NCCC1,-11.6,"23.1 µM [falling, partial curve]",
CC1CCCCC1NC(=O)CCCn1c(=S)[nH]c2ccsc2c1=O (configuration not stated),-65.5,"23.1 µM [falling, single point]","18.4 µM [falling, single point]"
CCc1cccc(NC(=O)CCCN2C(=O)NC(C)(C)C2=O)c1,2.98,,
CCC(C)(C)n1nnnc1C(c1cccs1)N1CCN(Cc2ccccc2)CC1 (configuration not stated),6.1,"5.8 µM [rising, partial curve]",
O=C(c1ccc(COc2ccccc2Br)cc1)N1CCCCC1,54,"1.46 µM [rising, full curve]","1.84 µM [rising, full curve]"
Cc1cc(C)c(C(=O)COC(=O)CNC(=O)c2ccccc2C)c(C)c1,-25,"5.17 µM [rising, full curve, poor fit]","0.116 µM [rising, partial curve, poor fit]"
CC1(C)CC2CC(C)(CN2C(=O)COC(=O)c2cccc(O)c2)C1 (configuration not stated),-20.6,"5.8 µM [falling, partial curve, poor fit]",
COCCCNCCOCCSc1ccc(Cl)cc1,0.549,,

SMILES,cell number change [%],AC50 [1],AC50 [2]
COc1ccc(/C=N/NC(=O)c2nc(-c3ccccc3)cc(-c3ccccc3)n2)cc1OC,-9.94,"0.231 µM [rising, partial curve, poor fit]",
COc1ccc(Cn2nnnc2CN2CCC(c3nc4ccccc4s3)CC2)cc1,,"5.17 µM [rising, full curve]","6.51 µM [rising, single point]"
CCCSc1nc2c(c(=O)n(C)c(=O)n2C)n1Cc1ccc(C)cc1,-11.7,,
O=C(CCN1C(=O)[C@@H]2Cc3ccccc3CN2C1=O)NCc1ccccc1,-22.8,,
COc1ccc(S(=O)(=O)N2CCC3(CC2)OCCN3S(=O)(=O)c2ccccc2)cc1OC,,,"1.84 µM [rising, partial curve, poor fit]"
Cc1cc(C)c2nc(N(CCCN(C)C)C(=O)c3ccc(S(=O)(=O)N4CC(C)OC(C)C4)cc3)sc2c1 (configuration not stated),-25,,"2.06 µM [rising, partial curve]"
COc1ccc(NC(=O)C(C)N2c3cccc4cccc(c34)S2(=O)=O)cc1OC (configuration not stated),-49.6,"14.6 µM [falling, partial curve]","14.6 µM [falling, partial curve]"
CN(C(=O)CSc1nnc(-c2cccs2)n1C1CC1)C1CCS(=O)(=O)C1 (configuration not stated),-5.87,"16.4 µM [rising, single point]",
Cn1cc(S(=O)(=O)N2CCCC(C(=O)O)C2)cn1 (configuration not stated),-33.6,,"18.4 µM [falling, single point]"
COC(=O)c1c(N2C(=O)CC(Sc3ncccc3C(=O)O)C2=O)sc(C)c1C (configuration not stated),24.5,"7.31 µM [rising, partial curve]",
Cc1ccc(C(=O)N2CCN(S(=O)(=O)c3cc(Br)ccc3Br)CC2)o1,14.1,"1.84 µM [falling, full curve]",
O=C(C1CCCN(S(=O)(=O)c2cccc3nsnc23)C1)N1CCCCCC1 (configuration not stated),4.81,"0.82 µM [falling, single point]","0.82 µM [falling, single point]"
Cc1ccc(OCC(=O)Nc2ccc(N3CCCC3)cc2)cc1C,-18.4,,
CC(=O)NC(NC(=S)Nc1ccc(C)cc1C)C(Cl)(Cl)Cl (configuration not stated),9.92,"0.731 µM [falling, full curve]",
O=C(Nc1cccc(Cl)c1)c1nc[nH]c1C(=O)NCc1ccccc1,-33.4,,"29.1 µM [falling, single point]"
Cc1cc2cc3c(cc2nc1SCC(=O)Nc1ccccc1)CCC3,19.3,"29.1 µM [rising, single point]",
CC(C)OC(=O)C1C(=O)CC(C)(O)C(C(=O)OC(C)C)C1c1cccc(O)c1 (configuration not stated),-18.4,"23.1 µM [falling, single point]",
Cc1cc(N/N=C/c2ccccc2)nc(N)n1,-0.427,"1.16 µM [rising, partial curve]",
C/C(=N\NC(=O)CCc1ccccc1)C1C(=O)c2ccccc2C1=O,-18.1,"0.259 µM [falling, full curve]",
Cc1ccc(C)c(N2CC(O)(c3cccs3)[N+]3=C2CCCC3)c1 (configuration not stated),-15,"0.651 µM [falling, full curve]","0.00731 µM [falling, full curve, poor fit]"

SMILES,cell number change [%],AC50 [1],AC50 [2]
COc1ccc(NC(=O)CSc2nnc(Cn3cnc4ccccc43)o2)cc1,,"0.731 µM [falling, partial curve, poor fit]","0.651 µM [falling, single point]"
CCCNc1c(NS(=O)(=O)c2ccc(C)c(C)c2)c(=O)oc2ccccc12,,"0.231 µM [falling, full curve, poor fit]",
Fc1ccc(Cn2nnnc2CN2CCc3ccccc3C2)cc1,15,,
Cc1ccc(NC(=O)c2cccc(Oc3ccc([N+](=O)[O-])cc3)c2)c(C(=O)O)c1,1.57,"10.3 µM [rising, partial curve]",
Cc1ccc(C(c2c(C)[nH][nH]c2=O)c2c(C)[nH][nH]c2=O)cc1,30.3,,
COc1cc(-c2nnc(CSc3nnc4nc(C)cc(C)n34)o2)cc(OC)c1OC,41.5,"13 µM [rising, partial curve]","9.2 µM [rising, partial curve]"
CC(NC(=O)COC(=O)CSc1ccc(F)cc1)c1ccc(F)cc1 (configuration not stated),-8.55,,
CCc1ccc(N2C(=O)Cc3c2nc(N)c(C#N)c3N)cc1,14.1,"0.0651 µM [rising, full curve, poor fit]","0.092 µM [rising, full curve]"
CCCOc1ccc(C(=O)c2ccccc2C(=O)OC2CCOC2=O)cc1OCCC (configuration not stated),-4.95,"1.03 µM [rising, partial curve]",
Cc1ccc(S(=O)(=O)NCC(=O)N(CC2CCCO2)C(C(=O)NC2CCCCC2)C(C)C)cc1 (configuration not stated),1.32,,
COc1ccccc1Nc1cc(C(=O)NCc2cccnc2)c2ccccc2n1,6.97,,
C/C(CCc1ccccc1)=N\NC(=O)c1ccccc1[N+](=O)[O-],,"0.411 µM [falling, partial curve, poor fit]","0.731 µM [falling, single point]"
CC(=O)Nc1ccc(NS(=O)(=O)c2ccc(Cl)c(C(=O)O)c2)cc1,-12.9,"32.6 µM [falling, single point]",
Cc1ccc(-n2c(-c3nn(C)c(C)c3Cl)n[nH]c2=S)cc1,78.6,"0.0517 µM [falling, single point]","9.2 µM [rising, partial curve]"
Cc1cc(-c2nn(C)c(=O)c3ccccc23)cc(C)c1O,-2.17,,
NC(=O)c1nsc(C(=O)N(c2ccccc2)C(C(=O)NC2CCCCC2)c2ccc(O)cc2)c1N (configuration not stated),-5.56,,
COc1ccc(C(=O)Nc2ccc(N3CCN(Cc4ccccc4)CC3)cc2)cc1,-45.4,,"18.4 µM [falling, single point]"
C=CCn1c(SCC(=O)N2CCc3ccccc3C2)nc2sc(C)c(C)c2c1=O,54.9,"3.26 µM [rising, single point]","29.1 µM [rising, single point]"
CN1CCC(=NNC(=O)C(=O)Nc2ccccc2)CC1,49.1,,"16.4 µM [rising, single point]"
Cc1cc(C)nc(SCc2nnc(SCC(=O)Nc3nccs3)n2Cc2ccco2)n1,-6.61,"1.16 µM [rising, partial curve]","3.66 µM [rising, single point]"

# Look-ups from the entries so far.
# `COc1ccc(C(=O)Nc2ccc(N3CCN(Cc4ccccc4)CC3)cc2)cc1` – cell number change [%]: -45.4
# `Cc1ccc(S(=O)(=O)NCC(=O)N(CC2CCCO2)C(C(=O)NC2CCCCC2)C(C)C)cc1` (configuration not stated) – cell number change [%]: 1.32
# `Cc1cc(C)nc(SCc2nnc(SCC(=O)Nc3nccs3)n2Cc2ccco2)n1` – AC50 [2]: 3.66 µM [rising, single point]
